PubChem BioAssay AID504774 | Drosophila RNAi Screening Center | 2011

Test: 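Knock-downs that shift viability of MMS-exposed cells relative to untreated ones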 (primary screen)
Cells: Drosophila Kc167 cells
Reagent: long dsRNA against Drosophila genes, about 0.25 µg dsRNA per well
Duration: about 6 days: 3 days knock-down, then 3 days with or without MMS
Treatment: methyl methanesulphonate 0.004% (w/v) for 3 days after knock-down
Measured: 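ATP-dependent luminescence as a measure of live cells in MMS-exposed wells, quantile normalised within each plate, with replicate values also given as a mean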
Direction: mean viability with MMS and viability with MMS: higher = more surviving cells after MMS
The deposit covers about 23,000 reagents; shown is an unselected part of those with a known target gene and a result. 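Values are quantile-normalised luminescence on an arbitrary scale; higher means more cells surviving MMS.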 A plus sign joins genes that one reagent is predicted to hit.

Gene | dsRNA | mean viability with MMS | viability with MMS, replicate 1 | viability with MMS, replicate 2
Sik2 | DRSC18522 | 3.51e6 | 4.17e6 | 3.80e6
CG6414 | DRSC18401 | 3.68e6 | 4.18e6 | 4.17e6
CG4914 | DRSC10458 | 3.73e6 | 4.30e6 | 4.09e6
CG43078 | DRSC10292 | 3.74e6 | 4.46e6 | 4.00e6
CG43078 | DRSC10608 | 3.65e6 | 4.19e6 | 4.08e6
CG43078 | DRSC21541 | 3.49e6 | 4.02e6 | 3.94e6
CG43078 | DRSC22327 | 3.61e6 | 4.07e6 | 4.07e6
Alms1a | DRSC18558 | 3.56e6 | 4.10e6 | 3.99e6
CG15754 | DRSC19719 | 3.48e6 | 4.00e6 | 3.88e6
TwdlQ | DRSC14745 | 3.23e6 | 3.60e6 | 3.65e6
TwdlQ | DRSC23107 | 3.49e6 | 4.10e6 | 3.87e6
CG5225 | DRSC15742 | 3.78e6 | 4.23e6 | 4.32e6
natalisin | DRSC14966 | 3.26e6 | 3.73e6 | 3.65e6
natalisin | DRSC14967 | 3.52e6 | 4.16e6 | 3.82e6
corn | DRSC11021 | 3.53e6 | 4.06e6 | 3.94e6
corn | DRSC21943 | 3.55e6 | 4.06e6 | 3.97e6
CG14778 | DRSC17953 | 3.60e6 | 4.08e6 | 4.08e6
Acsf3 | DRSC18146 | 3.68e6 | 4.14e6 | 4.20e6
CG17660 | DRSC00513 | 3.60e6 | 3.94e6 | 4.24e6
CG31559 | DRSC12172 | 3.48e6 | 3.97e6 | 3.93e6
CG31559 | DRSC12270 | 3.62e6 | 4.22e6 | 3.98e6
Sse | DRSC09746 | 3.40e6 | 3.82e6 | 3.92e6
chic | DRSC03507 | 3.62e6 | 4.14e6 | 4.03e6
CG6689 | DRSC16095 | 3.45e6 | 3.92e6 | 3.87e6
PIP4K | DRSC17213 | 3.71e6 | 4.18e6 | 4.20e6
CG5397 | DRSC00683 | 3.67e6 | 4.19e6 | 4.18e6
CG31523 | DRSC12009 | 3.46e6 | 3.82e6 | 4.06e6
CG31523 | DRSC12337 | 3.47e6 | 3.95e6 | 3.90e6
TwdlW | DRSC15540 | 3.55e6 | 4.11e6 | 3.95e6
CG42694 | DRSC03955 | 3.49e6 | 3.99e6 | 3.94e6
Ekar | DRSC17161 | 3.64e6 | 4.22e6 | 4.04e6
sug | DRSC06855 | 3.27e6 | 3.76e6 | 3.68e6
VhaM9.7-a | DRSC08289 | 3.50e6 | 3.90e6 | 4.05e6
CG12182 | DRSC08142 | 3.30e6 | 3.78e6 | 3.78e6

Reformatted: results already given
CG43078 [DRSC10608]
- mean viability with MMS: 3.65e6
- viability with MMS, replicate 1: 4.19e6
- viability with MMS, replicate 2: 4.08e6

CG43078 [DRSC21541]
- mean viability with MMS: 3.49e6
- viability with MMS, replicate 1: 4.02e6
- viability with MMS, replicate 2: 3.94e6

CG43078 [DRSC22327]
- mean viability with MMS: 3.61e6
- viability with MMS, replicate 1: 4.07e6
- viability with MMS, replicate 2: 4.07e6

Alms1a [DRSC18558]
- mean viability with MMS: 3.56e6
- viability with MMS, replicate 1: 4.10e6
- viability with MMS, replicate 2: 3.99e6

CG15754 [DRSC19719]
- mean viability with MMS: 3.48e6
- viability with MMS, replicate 1: 4.00e6
- viability with MMS, replicate 2: 3.88e6

TwdlQ [DRSC14745]
- mean viability with MMS: 3.23e6
- viability with MMS, replicate 1: 3.60e6
- viability with MMS, replicate 2: 3.65e6

TwdlQ [DRSC23107]
- mean viability with MMS: 3.49e6
- viability with MMS, replicate 1: 4.10e6
- viability with MMS, replicate 2: 3.87e6

CG5225 [DRSC15742]
- mean viability with MMS: 3.78e6
- viability with MMS, replicate 1: 4.23e6
- viability with MMS, replicate 2: 4.32e6

natalisin [DRSC14966]
- mean viability with MMS: 3.26e6
- viability with MMS, replicate 1: 3.73e6
- viability with MMS, replicate 2: 3.65e6

natalisin [DRSC14967]
- mean viability with MMS: 3.52e6
- viability with MMS, replicate 1: 4.16e6
- viability with MMS, replicate 2: 3.82e6

Next records follow:
Gene | dsRNA | mean viability with MMS | viability with MMS, replicate 1 | viability with MMS, replicate 2
sick | DRSC02090 | 3.62e6 | 4.14e6 | 4.08e6
sick | DRSC02301 | 3.46e6 | 3.90e6 | 3.92e6
sick | DRSC02302 | 3.48e6 | 3.97e6 | 3.92e6
sick | DRSC02303 | 3.35e6 | 3.76e6 | 3.76e6
sick | DRSC02306 | 3.49e6 | 3.94e6 | 3.98e6
upd2 | DRSC19969 | 3.41e6 | 3.82e6 | 3.88e6
CG32590 | DRSC19594 | 3.55e6 | 3.94e6 | 4.11e6
CrebB | DRSC20232 | 3.50e6 | 3.94e6 | 4.01e6
melt | DRSC11367 | 3.72e6 | 4.08e6 | 4.34e6
Moe | DRSC18684 | 3.40e6 | 4.05e6 | 3.49e6
CG11076 | DRSC17197 | 3.60e6 | 4.14e6 | 4.04e6
CG6040 | DRSC15954 | 3.54e6 | 4.08e6 | 3.95e6
CG17191 | DRSC15185 | 3.58e6 | 4.22e6 | 3.91e6
fwd | DRSC08580 | 3.52e6 | 4.00e6 | 3.97e6
HINT1 | DRSC00548 | 3.43e6 | 3.91e6 | 3.84e6
CG17270 | DRSC15209 | 3.61e6 | 4.00e6 | 4.16e6
CAH1 + Adat1 | DRSC02009 | 3.46e6 | 4.11e6 | 3.71e6
Hnf4 | DRSC01032 | 3.57e6 | 4.05e6 | 4.03e6
Hnf4 | DRSC03344 | 1.82e6 | 4.03e6 | 3.95e6
Sec24CD | DRSC00300 | 3.32e6 | 3.68e6 | 3.72e6
Tsp96F | DRSC14147 | 3.68e6 | 4.14e6 | 4.16e6
Grx3 | DRSC02966 | 3.57e6 | 4.06e6 | 4.05e6
Vha16-5 | DRSC02986 | 3.41e6 | 3.59e6 | 4.12e6
CG9593 | DRSC16508 | 3.69e6 | 4.25e6 | 4.12e6
Osi18 | DRSC12181 | 3.47e6 | 3.95e6 | 3.95e6
CG34193 | DRSC05665 | 3.63e6 | 4.21e6 | 3.97e6
CecC | DRSC16606 | 3.57e6 | 3.99e6 | 4.09e6
CG13332 | DRSC06367 | 3.35e6 | 3.94e6 | 3.24e6
Rai1 | DRSC20157 | 3.51e6 | 4.11e6 | 3.87e6
CG34316 | DRSC13080 | 3.62e6 | 4.06e6 | 4.11e6
CG8001 | DRSC08611 | 3.60e6 | 4.01e6 | 4.16e6
CG32102 | DRSC22015 | 3.62e6 | 4.09e6 | 4.08e6
Mvb12 | DRSC20027 | 3.76e6 | 4.23e6 | 4.15e6
CG13544 | DRSC04186 | 3.49e6 | 3.99e6 | 3.90e6
